For this assay, the target named is T1, FLAG-tagged dominant-active Rab32Q85L (UniProt Q13637).
T1 sequence: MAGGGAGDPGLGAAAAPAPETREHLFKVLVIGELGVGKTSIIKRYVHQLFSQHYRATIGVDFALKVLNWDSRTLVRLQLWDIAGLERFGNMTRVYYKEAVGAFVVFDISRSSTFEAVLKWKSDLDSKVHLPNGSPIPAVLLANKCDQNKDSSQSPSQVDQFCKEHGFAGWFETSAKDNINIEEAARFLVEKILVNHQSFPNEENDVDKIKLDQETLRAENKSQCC
Description: co-IP; MCF7 cells transfected for 48 h with FLAG-tagged Rab32 constructs; crosslinked with 2 mM DSP 30 min at room temperature, lysed in Chaps buffer (150 mM NaCl, 10 mM Tris pH 7.4, 1 mM EDTA, 1% Chaps); anti-FLAG precipitation on Protein A Sepharose; blot for the endogenous partner.

No constants are given. Whether binding was seen depends on the method and setting. In cells and extracts the contact can be indirect. Sequences can lack the tags named with a protein.

As to “endogenous short reticulon-3 (RTN3S) (human (endogenous in MCF7))”, the binding entry was “no binding”.

The record behind these values is article PMC8573869.
